Tested on: TOP10 E. coli
Test: Final OD600 of TOP10 E. coli cultures expressing the construct, arabinose inducible system
Format: cell-based
Settings: for OD600 after induction: TOP10, 40 μM arabinose, 4-5 h induction at 37° C.

B1: HB-EncK71^TEV (protein)
chain: MKWKSFIKKLTKAAKKVVTTAKKPLIVENLYFQGGGGGTEFLKRSFAPLTEKQWQEIDNRAREIFKTQLYGRKFVDVEGPYGWEYAAHPLGEVEVLSDENEVVKWGLRKGGENLYFQGGGSLPLIELRATFTLDLWELDNLERGKPNVDLSSLEETVRKVAEFEDEVIFRGCEKSGVKGLLSFEERKIECGSTPKDLLEAIVRALSIFSKDGIEGPYTLVINTDRWINFLKEEAGHYPLEKRVEECLRGGKIITTPRIEDALVVSERGGDFKLILGQDLSIGYEDREKDAVRLFITETFTFQVVNPEALILLK
- OD600 after induction: 2.7

B2: HB-EncD60^TEVK138^TEV-His: HB-Enc fusion with TEV site after D60 plus TEV-His insertion after K138; cage forming (protein)
chain: MKWKSFIKKLTKAAKKVVTTAKKPLIVENLYFQGGGGGTEFLKRSFAPLTEKQWQEIDNRAREIFKTQLYGRKFVDVEGPYGWEYAAHPLGEVEVLSDGGENLYFQGGGENEVVKWGLRKSLPLIELRATFTLDLWELDNLERGKPNVDLSSLEETVRKVAEFEDEVIFRGCEKSGVKGLLSFEERKGGGGGENLYFQGHHHHHHGGGGGIECGSTPKDLLEAIVRALSIFSKDGIEGPYTLVINTDRWINFLKEEAGHYPLEKRVEECLRGGKIITTPRIEDALVVSERGGDFKLILGQDLSIGYEDREKDAVRLFITETFTFQVVNPEALILLK
- cell density (OD600) (TOP10, arabinose induction, concentration not given): 2.3

B3: HB-EncK71^TEVK138^TEV-His: HBCM2 fused to N-terminus of T. maritima encapsulin; TEV sites after K71 and K138, His-tag; non-cage forming (protein)
chain: MKWKSFIKKLTKAAKKVVTTAKKPLIVENLYFQGGGGGTEFLKRSFAPLTEKQWQEIDNRAREIFKTQLYGRKFVDVEGPYGWEYAAHPLGEVEVLSDENEVVKWGLRKGGENLYFQGGGSLPLIELRATFTLDLWELDNLERGKPNVDLSSLEETVRKVAEFEDEVIFRGCEKSGVKGLLSFEERKGGGGGENLYFQGHHHHHHGGGGGIECGSTPKDLLEAIVRALSIFSKDGIEGPYTLVINTDRWINFLKEEAGHYPLEKRVEECLRGGKIITTPRIEDALVVSERGGDFKLILGQDLSIGYEDREKDAVRLFITETFTFQVVNPEALILLK
- OD600 after induction: 2.7
